From patent publication US9468646B2, “Increased dosage of efavirenz for the treatment of cancer” (Alienor Farma, priority 2013, dated 2016)
At least one structure is not confirmed: it was looked up by name or label, or the drawing left a doubt.

Key:
[1] = test system: hormone refractory prostate cancer; test: FAVE follow up study: progression free survival (RECIST) and overall survival, ITT analysis; assay type: in vivo, human
Experimental: For the exploratory analysis, following the latest recommendations of the Prostate Cancer Clinical Trials Working Group (Scher, 2008), PSA progression was defined as an increase of more than 25% over the baseline and an increase in the concentrations of PSA of at least 2 ng/ml. The clinical symptoms, the number of new bone metastasis and the global response to treatment (evaluated by the RECIST criteria) were also recorded. After three months, the global response and the overall survival were evaluated in a follow up study. This approach was followed by an interventional approach aimed to establish a causal relationship between dose and efficacy of the treatment. In this case after three months of treatment at the 600 mg/day dose, the doses of Efavirenz were progressively raised to reach 1.2 g/day. Differences in disease progression as a function of plasma Efavirenz concentrations were confirmed in the follow up study. […] Log-rank Mantel-Cox's test, the <1500 and 1500-3000 groups were cumulated for statistical analysis). […] These thirteen patients were used to constitute the dose escalation group.

tumor progression = settings: rat, approximately 5 mg/kg/day (1 mg/rat/day intraperitoneally); cited from earlier work
L1-RT = settings: human tumor cell lines; cited from earlier work

O=C1Nc2ccc(Cl)cc2[C@@](C#CC2CC2)(C(F)(F)F)O1 [Efavirenz]
overall survival (OS) ([1]; dose escalation group versus low concentration group without dose escalation): increased | overall survival (OS) ([1]; plasma Efavirenz >3000 ng/ml versus <1500 and 1500-3000 ng/ml groups): superior | tumor progression (tumor progression): inhibited | reverse transcriptase activity of L1-RT (L1-RT): able to inhibit
